The list shows only some results of the screen, not a fair sample: it is rich in T/C values a quarter to a half above the control, in often repeated tests (any T/C) and in doses without a T/C. Further doses and runs are listed elsewhere. T/C: endpoint of the treated group in % of that of the vehicle group. Some entries give survivors of the animals treated and no T/C: the source holds a T/C of zero for them, seemingly a mark for toxic or unscored doses. Some survivor counts are full or nearly so, which does not show that the dose was tolerated: the source hardly ever lists a survival T/C far under the control, and the zero likely stands for such cases as well. Counts of survivors are from the toxicity check (mostly the fifth day) where no day follows; animals may have died later. Schedule codes are those of the source, taken here to give the interval after Q, in days (D) or hours (H), and the number of doses after X. Some entries were tested several times; the values are given in rising order. Some structures stand for samples that the source files as different forms (salt, stereo form or complex); doses refer to the form tested. Signs of the kind (2×) stand for listed records that agree. For survival time, this PubChem deposit counts one and a half times the control or more as active, and values a quarter to a half above the control carry no call in these data; other NCI protocols may use other cut-offs.
Test system: P388 leukemia ip, CD2F1 mice, survival T/C
Test: NCI In Vivo Anticancer Drug Screen. Data for tumor model P388 Leukemia (intraperitoneal) in CD2F1 (CDF1) mice
Conditions: T/C endpoint: median survival time, higher T/C = longer survival
[1] = dose: 100.0 mg/kg/injection, schedule: Q01DX005 (ip), vehicle: saline with Tween-80
[2] = dose: 200.0 mg/kg/injection, schedule: Q01DX005 (ip), vehicle: saline with Tween-80
[3] = dose: 240.0 mg/kg/injection, schedule: Q01DX005 (ip), vehicle: saline
[4] = dose: 12.5 mg/kg/injection, schedule: Q01DX009 (ip), vehicle: saline with Tween-80
[5] = dose: 25.0 mg/kg/injection, schedule: Q01DX009 (ip), vehicle: saline with Tween-80
[6] = dose: 50.0 mg/kg/injection, schedule: Q01DX009 (ip), vehicle: saline with Tween-80
[7] = dose: 50.0 mg/kg/injection, schedule: Q01DX009 (ip), vehicle: saline
[8] = dose: 100.0 mg/kg/injection, schedule: Q01DX009 (ip), vehicle: saline with Tween-80
[9] = dose: 100.0 mg/kg/injection, schedule: Q01DX009 (ip), vehicle: saline
[10] = dose: 200.0 mg/kg/injection, schedule: Q01DX009 (ip), vehicle: saline

COc1ccc(C2(C3NCCC4=C3CCCC4)CC2)cc1 (stereo not given)
survivor count (dose: 200.0 mg/kg/injection, schedule: Q01DX005 (ip), vehicle: Klucel (hydroxypropylcellulose) (HPC)): 2 of 6

CCc1nc(N)nc(N)c1-c1ccc(OC)c(N)c1
T/C [1]: 126 % of control
T/C [2]: 144 % of control
T/C (dose: 400.0 mg/kg/injection, schedule: Q01DX005 (ip), vehicle: saline with Tween-80): 141 % of control

CN(C)CCC(=O)c1ccc2c(c1)OCO2
survivor count [3]: 0 of 6

CN(C)C(=S)N1C(=O)C2C3CCC(O3)C2C1=O (stereo not given)
survivor count (dose: 15.0 mg/kg/injection, schedule: Q01DX005 (ip), vehicle: saline with Tween-80): 0 of 6
survivor count (dose: 30.0 mg/kg/injection, schedule: Q01DX005 (ip), vehicle: saline with Tween-80): 0 of 6
survivor count (dose: 60.0 mg/kg/injection, schedule: Q01DX005 (ip), vehicle: saline with Tween-80): 0 of 6
survivor count (dose: 120.0 mg/kg/injection, schedule: Q01DX005 (ip), vehicle: saline with Tween-80): 0 of 6
survivor count (dose: 240.0 mg/kg/injection, schedule: Q01DX005 (ip), vehicle: saline with Tween-80): 0 of 6

COc1cc2c(cc1O)C1CC(CC3CCCCN31)OC(=O)/C=C\c1ccc(O)c-2c1 (stereo not given)
survivor count (dose: 400.0 mg/kg/injection, schedule: Q04DX003 (ip), vehicle: saline): 1 of 6

CN1CCCN(C)C1c1ccc(Cl)cc1
survivor count (dose: 6.25 mg/kg/injection, schedule: Q01DX009 (ip), vehicle: saline sonified): 6 of 6

NC(CCC(=O)O)(C(=O)O)c1ccccc1 (stereo not given)
survivor count (dose: 0.78 mg/kg/injection, schedule: Q01DX009 (ip), vehicle: saline with Tween-80): 6 of 6
survivor count (dose: 6.25 mg/kg/injection, schedule: Q01DX009 (ip), vehicle: saline with Tween-80): 6 of 6
survivor count [4]: 6 of 6
survivor count [5]: 6 of 6
survivor count [6]: 6 of 6

CCOC(=O)C[n+]1cc2ccccc2cc1C
survivor count [2]: 3 of 5

FC(F)(F)C1(C(F)(F)F)O[Si]2(OC(C(F)(F)F)(C(F)(F)F)c3ccccc32)c2ccccc21
survivor count (dose: 100.0 mg/kg/injection, schedule: Q01DX005 (ip), vehicle: distilled water + Tween-80 + alcohol): 0 of 6
survivor count (dose: 200.0 mg/kg/injection, schedule: Q01DX005 (ip), vehicle: distilled water + Tween-80 + alcohol): 0 of 6
survivor count [2]: 0 of 6

C#CC1(O)CC(c2ccccc2)N(C)C(c2ccccc2)C1 (stereo not given)
survivor count [1]: 0 of 6
survivor count [2]: 0 of 6

Cc1ccc(C(=O)NC2C(=O)NC(C(C)C)C(=O)N3CCCC3C(=O)N(C)CC(=O)N(C)C(C(C)C)C(=O)OC2C)c2c1Oc1c(c(C(=O)NC3C(=O)NC(C(C)C)C(=O)N4CCCC4C(=O)N(C)CC(=O)N(C)C(C(C)C)C(=O)OC3C)c3nc(-c4ccccc4)c(=O)oc3c1C)N2 (stereo not given)
T/C (dose: 0.13 mg/kg/injection, schedule: Q01DX005 (ip), vehicle: water): 125 % of control
T/C (dose: 0.25 mg/kg/injection, schedule: Q01DX005 (ip), vehicle: water): 145 % of control
T/C (dose: 0.5 mg/kg/injection, schedule: Q01DX005 (ip), vehicle: water): 126 % of control
survivor count (dose: 1.0 mg/kg/injection, schedule: Q01DX005 (ip), vehicle: water): 3 of 6 and 5 of 6
survivor count (dose: 2.0 mg/kg/injection, schedule: Q01DX005 (ip), vehicle: water): 0 of 6
survivor count (dose: 4.0 mg/kg/injection, schedule: Q01DX005 (ip), vehicle: water): 0 of 6

NCCCSc1ccccc1
survivor count [3]: 0 of 6

COC(=O)C(F)C(N)C(=O)O (stereo not given)
survivor count (dose: 100.0 mg/kg/injection, schedule: Q04DX003 (ip), vehicle: saline): 6 of 6

NC(=O)c1nn(C2OC(CO)C(O)C2O)c2ncnc(N)c12 (stereo not given)
T/C (dose: 1.5 mg/kg/injection, schedule: Q01DX009 (ip), vehicle: Klucel (hydroxypropylcellulose) (HPC)): 140 % of control

COc1cccc2c1C(=O)c1c(O)c3c(c(O)c1C2=O)CC(O)(/C(C)=N/NC(=O)CCCCCCC(=O)N/N=C(\C)C1(O)Cc2c(O)c4c(c(O)c2C(OC2CC(N)C(O)C(C)O2)C1)C(=O)c1c(OC)cccc1C4=O)CC3OC1CC(N)C(O)C(C)O1 (stereo not given)
survivor count (dose: 32.0 mg/kg/injection, schedule: Q01DX009 (ip), vehicle: water): 3 of 3

O=C1NC(=O)C2(OC3c4ccccc4C=NN3C3=C2C(=O)CCC3)C(=O)N1 (stereo not given)
survivor count (dose: 240.0 mg/kg/injection, schedule: Q01DX005 (ip), vehicle: Klucel (hydroxypropylcellulose) (HPC)): 6 of 6

O=C(C[n+]1ccccc1)N/N=C/c1ccc([N+](=O)[O-])s1
survivor count [6]: 3 of 6
survivor count [7]: 0 of 6
survivor count [8]: 0 of 6
survivor count [9]: 0 of 6
survivor count [10]: 0 of 6

CCC[CH2][Sn]1([CH2]CCC)[O]C(=O)CSC(=S)SCC(=O)[O]1
survivor count [4]: 0 of 6
survivor count [5]: 0 of 6
survivor count [7]: 2 of 6
survivor count [9]: 0 of 6
survivor count [10]: 0 of 6

CNC(=O)Nc1ccnc2ccc3c(ncn3C(=O)NC)c12
survivor count (dose: 400.0 mg/kg/injection, schedule: Q01DX001 (ip), vehicle: saline with Tween-80): 0 of 6

C=C1C(O)C23CCC4C(C(=O)O)(C(=O)O)CC(OC5OC(CO)C(O)C(OC(=O)CCc6ccccc6)C5NC(=O)CC(C)C)CC4(C)C2CCC1(O)C3 (stereo not given)
survivor count (dose: 6.25 mg/kg/injection, schedule: Q01DX005 (ip), vehicle: Klucel (hydroxypropylcellulose) (HPC)): 0 of 5
survivor count (dose: 12.5 mg/kg/injection, schedule: Q01DX005 (ip), vehicle: Klucel (hydroxypropylcellulose) (HPC)): 0 of 5

[N-]=[N+]=NC1(c2ccccc2)C(=O)c2ccccc2C1=O
survivor count (dose: 400.0 mg/kg/injection, schedule: Q04DX003 (ip), vehicle: saline with Tween-80): 3 of 6

O=C1C=CC(=O)C2(CO)OC12 (stereo not given)
survivor count (dose: 7.5 mg/kg/injection, schedule: Q04DX002 (ip), vehicle: saline with Tween-80): 0 of 6
survivor count (dose: 37.5 mg/kg/injection, schedule: Q04DX002 (ip), vehicle: saline): 0 of 6
survivor count (dose: 75.0 mg/kg/injection, schedule: Q04DX002 (ip), vehicle: saline): 0 of 6
survivor count (dose: 150.0 mg/kg/injection, schedule: Q04DX002 (ip), vehicle: saline): 0 of 6

COc1cc2c(cc1OC)C1=[N+](CCC1)CC2
survivor count (dose: 120.0 mg/kg/injection, schedule: Q01DX005 (ip), vehicle: saline): 3 of 6
survivor count [3]: 0 of 6

COc1ccc2nc(N(C)C)cc(N(C)C)c2c1
survivor count (dose: 50.0 mg/kg/injection, schedule: Q01DX009 (ip), vehicle: Klucel (hydroxypropylcellulose) (HPC)): 5 of 6
survivor count (dose: 100.0 mg/kg/injection, schedule: Q01DX009 (ip), vehicle: Klucel (hydroxypropylcellulose) (HPC)): 0 of 6
survivor count (dose: 200.0 mg/kg/injection, schedule: Q01DX009 (ip), vehicle: Klucel (hydroxypropylcellulose) (HPC)): 0 of 6

CCCCCCCCCCCCCCOc1ccc(C(C)=O)o1
survivor count [8]: 6 of 6

CC(=NC(C)(C)C)N1CCCC1
survivor count (dose: 50.0 mg/kg/injection, schedule: Q01DX005 (ip), vehicle: saline): 5 of 5
survivor count (dose: 100.0 mg/kg/injection, schedule: Q01DX005 (ip), vehicle: saline): 0 of 5
survivor count (dose: 200.0 mg/kg/injection, schedule: Q01DX005 (ip), vehicle: saline): 0 of 5 (2×)

Cn1nnnc1-c1ccc(C(=O)O)cc1
survivor count (dose: 100.0 mg/kg/injection, schedule: Q01DX005 (ip), vehicle: Klucel (hydroxypropylcellulose) (HPC)): 5 of 5

O=c1[nH]c2ccccc2nc1/C=C(\O)c1ccc([N+](=O)[O-])cc1
survivor count (dose: 60.0 mg/kg/injection, schedule: Q01DX005 (ip), vehicle: Klucel + Tween-80): 6 of 6
survivor count (dose: 120.0 mg/kg/injection, schedule: Q01DX005 (ip), vehicle: Klucel + Tween-80): 5 of 6
survivor count (dose: 240.0 mg/kg/injection, schedule: Q01DX005 (ip), vehicle: Klucel + Tween-80): 4 of 6
